For one substance, binding results are on record in article PMC9502984.

Amino acid sequences for entries named in this document (tags omitted).
UniProt O95166: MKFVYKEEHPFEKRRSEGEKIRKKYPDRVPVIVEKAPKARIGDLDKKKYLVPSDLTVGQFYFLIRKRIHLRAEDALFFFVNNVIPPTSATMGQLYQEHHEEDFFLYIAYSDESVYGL

For assay [1], the target named is T1, 3×Flag-ATG4A (wild-type, full-length ATG4A) (UniProt Q8WYN0).
T1 sequence: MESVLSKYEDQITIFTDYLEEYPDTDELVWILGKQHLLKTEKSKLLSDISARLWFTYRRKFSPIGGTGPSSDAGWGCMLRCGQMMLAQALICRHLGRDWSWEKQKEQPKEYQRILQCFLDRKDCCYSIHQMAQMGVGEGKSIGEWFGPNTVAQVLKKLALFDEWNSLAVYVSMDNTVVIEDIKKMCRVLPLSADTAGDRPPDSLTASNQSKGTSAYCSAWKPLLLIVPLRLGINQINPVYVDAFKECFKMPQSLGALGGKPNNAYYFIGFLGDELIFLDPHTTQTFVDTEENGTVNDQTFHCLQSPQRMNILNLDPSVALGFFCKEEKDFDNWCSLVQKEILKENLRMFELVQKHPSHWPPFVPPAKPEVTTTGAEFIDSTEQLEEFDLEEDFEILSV
As to the kind of experiment: co-IP; HEK293T cells co-transfected with GFP-GABARAP and a Flag-tagged ATG4 construct; lysates incubated with anti-FLAG magnetic beads overnight at 4 °C, eluted with 1% SDS sample buffer, Western blot. In general terms: A western blot detects proteins with antibodies after separation by electrophoresis.

Assay [2] has as its target T2, Truncated 3×Flag-ATG4A (T-ATG4A, lacking amino acids 374–398) (UniProt Q8WYN0).
T2 sequence: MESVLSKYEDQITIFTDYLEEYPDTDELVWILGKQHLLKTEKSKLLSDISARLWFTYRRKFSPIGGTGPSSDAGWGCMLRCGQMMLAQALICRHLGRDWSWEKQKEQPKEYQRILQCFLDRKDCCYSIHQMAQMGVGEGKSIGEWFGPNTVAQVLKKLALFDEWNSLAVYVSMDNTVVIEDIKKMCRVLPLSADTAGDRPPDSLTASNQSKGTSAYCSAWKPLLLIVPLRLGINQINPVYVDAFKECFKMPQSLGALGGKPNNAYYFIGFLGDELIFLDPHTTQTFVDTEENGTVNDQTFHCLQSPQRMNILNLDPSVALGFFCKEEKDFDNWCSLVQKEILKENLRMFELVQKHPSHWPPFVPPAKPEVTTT
Described as above.

No constants are given. Whether binding was seen depends on the method and setting. In cells and extracts the contact can be indirect. Some entries that bind do so weakly or less than the wild type. Sequences can lack the tags named with a protein.

On to GFP-GABARAP (from UniProt O95166 1-117), for which the binding result in assay [1] and in assay [2] was “binds” each time.
